The record followed here is publication PMC4391845.

Data set [1] relates to PBX1 1-308 + PREP1 1-344. Put plainly: EMSA. The settings on record: 2.5 uM complex, 1:1 with DNA, 1 ug poly(dIdC), EMSA: 20 mM Tris pH 7.4, 150 mM NaCl, 5% glycerol, 1 mM DTT, 30 min at 4 C (Fig 6 legend) or 15 min after room-temperature assembly (Methods), recombinant protein, label: none (GelRed stain). On the technique in general: Mobility shift assays separate free from complexed probe on a gel.

The subject of data set [2] is PBX1 full length + PREP1 full length. Put plainly: EMSA. The settings on record: 2.5 uM complex, 1:1 with DNA, 1 ug poly(dIdC), EMSA: 20 mM Tris pH 7.4, 150 mM NaCl, 5% glycerol, 1 mM DTT, 30 min at 4 C (Fig 6 legend) or 15 min after room-temperature assembly (Methods), recombinant protein, label: none (GelRed stain).
For data set [3], the system named is PBX1 1-308 + PREP1 1-344. The data set is described as follows: static light scattering (SEC). To be noted: mass of DNA-bound complex agrees with theoretical; recombinant protein; label: none (GelRed stain).

The exact form of at least one protein or probe is not confirmed. For some assays here: At least one verdict rests on a figure or table, not on a statement of the authors.

In the case of “TCCTGAGGTGACAGAAGGAAG (double strand) [O1 22 bp (printed as 21 bp in Table 2)]”, the binding result (in the data set on PBX1 1-308 + PREP1 1-344 [1] (no second band); in data set [2] (second minor retarded band)) was “binds” each time.
In the case of TAGTGACAGAA (double strand) [O1 11 bp], the binding result (with PBX1 1-308 + PREP1 1-344 [3]; in the data set with PBX1 1-308 + PREP1 1-344 [1]; in data set [2]) was “binds” in each case.
